Three substances from PMC6597547 can be followed below.

Sequences of proteins named here, by UniProt entry; tags and fusion partners are left off. Residues count along the entry.
UniProt Q9FI56, residues 39-929: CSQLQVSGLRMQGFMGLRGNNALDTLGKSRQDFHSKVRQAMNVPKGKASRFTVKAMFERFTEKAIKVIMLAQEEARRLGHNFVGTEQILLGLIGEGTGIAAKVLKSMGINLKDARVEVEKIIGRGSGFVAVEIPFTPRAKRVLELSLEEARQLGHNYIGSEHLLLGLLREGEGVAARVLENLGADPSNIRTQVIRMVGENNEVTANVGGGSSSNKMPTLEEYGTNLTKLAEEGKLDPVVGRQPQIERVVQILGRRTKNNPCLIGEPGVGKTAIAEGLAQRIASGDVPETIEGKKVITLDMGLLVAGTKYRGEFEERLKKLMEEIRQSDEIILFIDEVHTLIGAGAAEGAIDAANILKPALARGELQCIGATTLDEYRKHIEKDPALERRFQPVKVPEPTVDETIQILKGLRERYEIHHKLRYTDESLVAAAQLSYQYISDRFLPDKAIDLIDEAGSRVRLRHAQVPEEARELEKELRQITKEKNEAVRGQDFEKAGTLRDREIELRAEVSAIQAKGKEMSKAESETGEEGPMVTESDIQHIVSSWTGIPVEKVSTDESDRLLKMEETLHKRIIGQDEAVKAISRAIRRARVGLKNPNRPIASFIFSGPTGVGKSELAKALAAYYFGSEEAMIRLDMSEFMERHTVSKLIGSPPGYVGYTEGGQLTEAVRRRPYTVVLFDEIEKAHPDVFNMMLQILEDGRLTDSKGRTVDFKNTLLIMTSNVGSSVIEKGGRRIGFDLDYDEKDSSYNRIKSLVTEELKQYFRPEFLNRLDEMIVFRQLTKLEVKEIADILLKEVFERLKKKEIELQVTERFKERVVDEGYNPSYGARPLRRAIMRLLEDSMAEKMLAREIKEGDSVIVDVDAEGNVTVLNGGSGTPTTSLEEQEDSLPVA

No constants are given. Whether binding was seen depends on the method and setting. Binding seen in cells or lysates may run through a third protein. Here binding means that the protein was enriched with, or labelled near, the bait; the list need not be complete. Sequences can lack the tags named with a protein.

The assay concerns the target T1, EXECUTER1 (EX1) fused to GFP (Arabidopsis thaliana) (UniProt Q93YW0).
T1 sequence: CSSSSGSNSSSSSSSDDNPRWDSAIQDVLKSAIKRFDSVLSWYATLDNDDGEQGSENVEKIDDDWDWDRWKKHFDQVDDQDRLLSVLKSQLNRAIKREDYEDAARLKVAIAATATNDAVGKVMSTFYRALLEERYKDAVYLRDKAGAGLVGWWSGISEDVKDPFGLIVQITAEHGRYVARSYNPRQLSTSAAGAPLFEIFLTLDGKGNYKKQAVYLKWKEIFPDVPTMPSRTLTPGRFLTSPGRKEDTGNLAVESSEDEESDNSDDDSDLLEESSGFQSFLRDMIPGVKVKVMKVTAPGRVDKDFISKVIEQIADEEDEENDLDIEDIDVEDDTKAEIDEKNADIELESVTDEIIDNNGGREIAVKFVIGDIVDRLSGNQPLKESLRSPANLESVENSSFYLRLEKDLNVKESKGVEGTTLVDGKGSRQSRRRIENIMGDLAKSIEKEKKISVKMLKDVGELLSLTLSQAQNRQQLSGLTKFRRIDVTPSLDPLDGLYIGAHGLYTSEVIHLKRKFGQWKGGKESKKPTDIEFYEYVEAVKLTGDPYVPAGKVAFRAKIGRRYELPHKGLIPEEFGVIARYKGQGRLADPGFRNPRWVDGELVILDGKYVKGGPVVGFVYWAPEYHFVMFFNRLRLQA
Briefly: affinity purification with mass spectrometry; GFP-Trap enriched EX1-GFP and associated proteins from dark- or continuous-light-grown seedlings; eluted with 6 M guanidine hydrochloride, trypsin digest, LC-MS/MS (Q Exactive), Mascot search.
Turning to ClpC1 (from UniProt Q9FI56 39-929), the binding entry is “binds”.
To Hsp70 belongs “binds”; to “light-dependent NADPH:protochlorophyllide oxidoreductase (POR) (enzyme)”, “binds”.
